No constants are given. Whether binding was seen depends on the method and setting. Binding calls can cover weak binding; strength is not graded here.
Assays:
[1] = biological target: endogenous LAG-3 expressed on SEB-stimulated cynomolgus monkey PBMCs (cynomolgus monkey); experiment: FACS on SEB-stimulated cynomolgus monkey PBMCs (FIGS. 18A-18B)
[2] = biological target: endogenous LAG-3 expressed on SEB-stimulated cynomolgus monkey PBMCs (cynomolgus monkey); experiment: FACS on SEB-stimulated cynomolgus monkey PBMCs

B1: hLAG-3 mAb 6 (1.1) (antibody, V domains shown)
VH: QVQLVQSGAEVKKPGASVKVSCKASGYTFTDYNMDWVRQAPGQGLEWMGDINPDNGVTIYNQKFEGRVTMTTDTSTSTAYMELRSLRSDDTAVYYCAREADYFYFDYWGQGTTLTVSS
VL: DIQMTQSPSSLSASVGDRVTITCRASQDVSSVVAWYQQKPGKAPKLLIYSASYRYTGVPSRFSGSGSGTDFTLTISSLQPEDFATYYCQQHYSTPWTFGGGTKLEIK
For B1, the binding [1] was “binds” and the binding [2] was “binds”.

— US20190085075A1
